According to ChEMBL document CHEMBL1143853, “Daptomycin nonsusceptibility in Staphylococcus aureus with reduced vancomycin susceptibility is independent of alterations in MprF” (2007):
Converted amounts (≈) assume the structure as drawn.

Key:
Staphylococcus aureus [1] = test: Antimicrobial activity against methicillin-resistant Staphylococcus aureus A8094 by agar dilution method; type: functional
Staphylococcus aureus [2] = test: Antimicrobial activity against methicillin-resistant Staphylococcus aureus A6226 by agar dilution method; type: functional

Work on CN[C@H](CC(C)C)C(=O)N[C@H]1C(=O)N[C@@H](CC(N)=O)C(=O)N[C@H]2C(=O)N[C@H]3C(=O)N[C@H](C(=O)N[C@H](C(=O)O)c4cc(O)cc(O)c4-c4cc3ccc4O)[C@H](O)c3ccc(c(Cl)c3)Oc3cc2cc(c3O[C@@H]2O[C@H](CO)[C@@H](O)[C@H](O)[C@H]2O[C@H]2C[C@](C)(N)[C@H](O)[C@H](C)O2)Oc2ccc(cc2Cl)[C@H]1O [VANCOMYCIN] yielded an MIC (Staphylococcus aureus [1]) of 8 µg/mL (≈ 5.52 µM) and an MIC (Staphylococcus aureus [2]) of 8 µg/mL (≈ 5.52 µM).
